The list shows a part of the results.

Chains of the proteins cited; added tags and fusions are not shown.
UniProt Q0JBA9, entry or part of it: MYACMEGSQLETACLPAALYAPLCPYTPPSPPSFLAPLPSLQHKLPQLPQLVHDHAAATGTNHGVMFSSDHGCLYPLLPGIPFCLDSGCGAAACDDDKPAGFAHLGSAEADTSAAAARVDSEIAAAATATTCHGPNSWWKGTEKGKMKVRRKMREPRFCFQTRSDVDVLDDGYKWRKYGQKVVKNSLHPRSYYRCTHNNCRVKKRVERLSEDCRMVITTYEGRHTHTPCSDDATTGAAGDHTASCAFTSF

For 42 sequences, binding signal results are on record in publication PMC7819943, “Rice protein-binding microarrays: a tool to detect cis-acting elements near promoter regions in rice”.

This assay deals with OsWRKY34 (Oryza sativa, UniProt Q0JBA9 1-250). Briefly: protein-binding microarray (RPBM); PBS, 2% BSA, 51.3 ng/ul salmon testes DNA, 50 uM zinc acetate, 200 nM TF, 25 C, 1 h; high values mean tight binding. As to conditions: protein: recombinant; tags: N-terminal polyhistidine and DsRed monomer fusion (pET32a); label: CyDye5-dUTP incorporated in the synthesized complementary strand; 3' TTTTT single-stranded linker to array surface; dsDNA, one strand shown. The essentials:
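The binding signal is fluorescence intensity per array feature (arbitrary units). Readings came from an Axon 4000B scanner after a washed, 2% BSA-blocked, double-stranded custom Agilent array had been incubated for 1 h at 25 °C with 200 nM protein and 50 µM zinc acetate. The protein was a Ni–NTA-purified transcription factor fused N-terminally to polyhistidine and DsRed, expressed in E. coli BL21-CodonPlus.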
On to “GTTTGTATGTTGTCTGGATTCTTTCGGTGTCTCCTTCAATCGGAGTCACCTAGTGCAG”, for which the binding signal was 15100 fluorescence intensity (a.u.).

In the case of “CAAAATACATCACATCCGATTTTAGATTGCTGCTATATTCCGGAGTCACCTAGTGCAG”, the binding signal is 8440 fluorescence intensity (a.u.).

As for “AGGAGGCGGGGCGGGGCGGCGGCGGCGGCGGCGGCGCCCGCGGAGTCACCTAGTGCAG”, the binding signal was 11500 fluorescence intensity (a.u.).

For the sequence “AATACCAAAATTTTTGCCACCAAAACTTTTGCCATTTGCCCGGAGTCACCTAGTGCAG”, the binding signal is 8300 fluorescence intensity (a.u.).

As for “TTTCCGCTCTACTTTGCTATGCCAACTACTCTTCTCTCCTCGGAGTCACCTAGTGCAG”, the binding signal was 11300 fluorescence intensity (a.u.).

As for “GCGTGCCTGCCTCTTCTGTGTCTCTCTGCGACAGCCATCGCGGAGTCACCTAGTGCAG”, the binding signal is 8900 fluorescence intensity (a.u.).

Regarding “TACAGAGCAGTGGTAGTGGTAGTGATGTATATTGATCTTTCGGAGTCACCTAGTGCAG”, the binding signal was 8140 fluorescence intensity (a.u.).

With “CATAGTAATAGTATCGTCGTGTTCACTCTCCGACGACTTACGGAGTCACCTAGTGCAG”, the binding signal is 9540 fluorescence intensity (a.u.).

Turning to “GTTTGGTCTAATATCATTTGTTGGAGTTGCTGCATTATTTCGGAGTCACCTAGTGCAG”, the binding signal was 8840 fluorescence intensity (a.u.).

As to “CCATTTGTCCACCACCACCTCCACCACCTGACACGTCGTCCGGAGTCACCTAGTGCAG”, the binding signal is 8050 fluorescence intensity (a.u.).

As for “TCCTCGCCCATGGCGTTTCACGTCGCGTGCCCCATCACATCGGAGTCACCTAGTGCAG”, the binding signal is 9080 fluorescence intensity (a.u.).

Consider “TTTTTTGTTTCTGTTGGGCTTATTTTGTGAACATCTGACCCGGAGTCACCTAGTGCAG”, for which the binding signal is 8550 fluorescence intensity (a.u.).

Regarding “TAAATGGCCATGATTCTTGCGCGTTTCTGCTCTGTCTGTCCGGAGTCACCTAGTGCAG”, the binding signal was 9830 fluorescence intensity (a.u.).

For “CGCCGTCTCCATCAGATCATTATTCCTTTCTCCTTCCTGTCGGAGTCACCTAGTGCAG”, the binding signal is 8320 fluorescence intensity (a.u.).

“TTCTAATTTTTTCGTCGTTTTCCTTAATTTTGTTTGAACTCGGAGTCACCTAGTGCAG”: the binding signal is 12000 fluorescence intensity (a.u.).

For the sequence “ATCGGAGGACCTGGGAGAGGTTAGGGTTAGGGTTATGGGGCGGAGTCACCTAGTGCAG”, the binding signal is 8640 fluorescence intensity (a.u.).

As to “GGTACCACGCTTTGATGTGCCTTATGTGGCACTTTATTTTCGGAGTCACCTAGTGCAG”, the binding signal was 10400 fluorescence intensity (a.u.).

Regarding “TTGCGTGTACTTCCGGGTGGGAGGTTGATGGCGATGGTGACGGAGTCACCTAGTGCAG”, the binding signal was 15200 fluorescence intensity (a.u.).

Take “CCCGCCCGAACGACCACCAATCCACCATTACACCACTTAACGGAGTCACCTAGTGCAG”: the binding signal is 8320 fluorescence intensity (a.u.).

For “TTTCAGCCGATCTTACTTGATTTAGCCTTATATCTTATGTCGGAGTCACCTAGTGCAG”, the binding signal was 8140 fluorescence intensity (a.u.).

For “ACATTTTTCGCTTTTGGACCACATAATCTCCTTGTAATCTCGGAGTCACCTAGTGCAG”, the binding signal was 11300 fluorescence intensity (a.u.).

For the sequence “CGGCCCGGCCGCCAGATCCAGTAGGGGCGGGAGGGGAGGCCGGAGTCACCTAGTGCAG”, the binding signal is 9150 fluorescence intensity (a.u.).

Turning to “AGGGCTCACTTCCACTGACATGCGGGGCCCACGCTTTTCCCGGAGTCACCTAGTGCAG”, the binding signal was 8650 fluorescence intensity (a.u.).

Take “GAGGGATGTCTTATATCTAGTTTTGTGGTTGGAGGATGATCGGAGTCACCTAGTGCAG”: the binding signal was 8770 fluorescence intensity (a.u.).

Turning to “GTGCTGTTCCTCCGTTCTTCCTTGCACACGACGGCTGCCCCGGAGTCACCTAGTGCAG”, the binding signal was 13300 fluorescence intensity (a.u.).

Regarding “TTGGGACGCTCGATTTTTTCTTTCTGGCCGGACGGCCGATCGGAGTCACCTAGTGCAG”, the binding signal is 8540 fluorescence intensity (a.u.).

For the sequence “CTAGGTCCCATGATAGCAGCTCGAGAAGACGAGAATCACTCGGAGTCACCTAGTGCAG”, the binding signal was 8180 fluorescence intensity (a.u.).

With “TGCTCCGGTGATCTCTCCCCGTCCTTGTAACGTAGACGACCGGAGTCACCTAGTGCAG”, the binding signal is 8150 fluorescence intensity (a.u.).

With “TCCCCAGCCGCAAACATTCTCGCATTCTCCACGACTCCACCGGAGTCACCTAGTGCAG”, the binding signal is 8120 fluorescence intensity (a.u.).

Regarding “CTGTGCTGCTTGCGTTGCGTTGGCCGTTGGTAGGTTTTGGCGGAGTCACCTAGTGCAG”, the binding signal was 9300 fluorescence intensity (a.u.).

Consider “TGTATTGTGGGCCCACACGTCATCCTTTCTTTCCAACCCTCGGAGTCACCTAGTGCAG”, for which the binding signal is 8070 fluorescence intensity (a.u.).

For “ATACTTGTTAGTTCTGTAAACAGAAGACTGCTATCTTGCCCGGAGTCACCTAGTGCAG”, the binding signal is 8530 fluorescence intensity (a.u.).

For “GCTAGATCTCACCACCAATGGCGCTTCCGTTCTGAGTCACCGGAGTCACCTAGTGCAG”, the binding signal was 8700 fluorescence intensity (a.u.).

With “GTCGATGTGTCTTTTGTGTGTAGTTCTTGTAATTGTTGTGCGGAGTCACCTAGTGCAG”, the binding signal is 8220 fluorescence intensity (a.u.).

Consider “CAGATACATCTCATTATTTGACCACCACCACCACCACTACCGGAGTCACCTAGTGCAG”, for which the binding signal is 10100 fluorescence intensity (a.u.).

Take “TTGGTCCAAGTGGTGTAAAGTTTTGGTTCTTTTTATTGACCGGAGTCACCTAGTGCAG”: the binding signal is 10000 fluorescence intensity (a.u.).

As for “GCCCGCTCTATATCATCGCTGCCTTTTCCGGCCCAGCCCACGGAGTCACCTAGTGCAG”, the binding signal is 10400 fluorescence intensity (a.u.).

On to “TTGCTTCTCTTTCCACTATTTTGTTACACACTCCTGTTTCCGGAGTCACCTAGTGCAG”, for which the binding signal was 10700 fluorescence intensity (a.u.).

Take “CTTGCTACATTATACATGTTCTATCTTTGTCTTGCTTGTTCGGAGTCACCTAGTGCAG”: the binding signal was 8210 fluorescence intensity (a.u.).

On to “GGTCATCATCCTGGTTAGTAACATCTAGGCGTTTTTCATTCGGAGTCACCTAGTGCAG”, for which the binding signal is 8370 fluorescence intensity (a.u.).

Consider “CGTCGTTGTCGTCCGTAGCGGGAGGGAGGGAGAGAGTACGCGGAGTCACCTAGTGCAG”, for which the binding signal is 8400 fluorescence intensity (a.u.).

“AATTGGGGTAAAAGTGGGAATGGGGTAACGGAGATCGGAACGGAGTCACCTAGTGCAG”: the binding signal is 8430 fluorescence intensity (a.u.).
